For six molecules, binding results are on record in paper doi:10.1101/2020.09.30.318253.

These are yes or no findings as the source states them, for the method shown. In cells and extracts the contact can be indirect. A yes stands for co-enrichment or nearness to the bait. Other partners may have been found. For part of these data: A no says only that the protein was not detected with the bait. Sequences can lack the tags named with a protein.

For assay [1], the target named is T1, GSRhino-TAP-tagged DET1 (DE-ETIOLATED1) (Arabidopsis) (UniProt P48732).
T1 sequence: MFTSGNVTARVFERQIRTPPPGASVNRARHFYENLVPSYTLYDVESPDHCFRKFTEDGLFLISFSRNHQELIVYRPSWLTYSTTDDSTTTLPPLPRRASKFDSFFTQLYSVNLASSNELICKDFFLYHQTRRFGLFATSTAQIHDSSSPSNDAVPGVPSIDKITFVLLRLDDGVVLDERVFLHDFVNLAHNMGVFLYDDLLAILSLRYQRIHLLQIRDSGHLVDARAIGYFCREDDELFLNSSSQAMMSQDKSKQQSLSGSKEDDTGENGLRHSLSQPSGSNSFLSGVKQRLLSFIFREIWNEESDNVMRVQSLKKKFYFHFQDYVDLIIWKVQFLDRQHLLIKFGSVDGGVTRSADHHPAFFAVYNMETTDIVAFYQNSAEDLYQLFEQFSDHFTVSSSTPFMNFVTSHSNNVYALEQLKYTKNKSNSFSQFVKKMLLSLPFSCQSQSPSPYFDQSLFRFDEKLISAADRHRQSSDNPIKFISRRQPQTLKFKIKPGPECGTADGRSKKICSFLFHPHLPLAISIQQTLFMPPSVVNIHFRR
Description: affinity purification with mass spectrometry.

The target of assay [2] is T2, GSRhino-TAP-tagged COP1 (Arabidopsis) (UniProt P43254).
T2 sequence: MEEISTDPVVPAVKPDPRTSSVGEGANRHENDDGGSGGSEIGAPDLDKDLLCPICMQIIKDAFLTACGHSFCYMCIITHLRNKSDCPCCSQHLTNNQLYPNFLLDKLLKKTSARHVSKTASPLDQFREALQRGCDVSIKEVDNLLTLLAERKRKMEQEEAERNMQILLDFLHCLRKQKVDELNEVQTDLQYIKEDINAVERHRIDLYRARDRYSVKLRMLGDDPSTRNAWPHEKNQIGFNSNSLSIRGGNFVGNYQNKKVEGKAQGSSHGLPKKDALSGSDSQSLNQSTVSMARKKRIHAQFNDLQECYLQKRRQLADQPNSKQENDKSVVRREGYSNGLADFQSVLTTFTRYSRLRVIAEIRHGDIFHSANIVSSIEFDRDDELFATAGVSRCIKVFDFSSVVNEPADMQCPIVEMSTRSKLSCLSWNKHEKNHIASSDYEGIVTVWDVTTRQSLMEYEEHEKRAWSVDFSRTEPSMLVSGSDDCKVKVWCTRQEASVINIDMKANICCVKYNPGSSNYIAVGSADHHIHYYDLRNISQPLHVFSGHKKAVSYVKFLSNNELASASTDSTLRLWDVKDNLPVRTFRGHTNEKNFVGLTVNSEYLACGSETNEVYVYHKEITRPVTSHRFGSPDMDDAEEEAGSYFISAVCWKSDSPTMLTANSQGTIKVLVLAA
Kind of assay: affinity purification with mass spectrometry.

B1: CSN1 (signalosome subunit 1) (protein, UniProt P45432 1-441)
chain: MERDEEASGPMMEMCTNGGEETSNRRPIISGEPLDIEAYAALYKGRTKIMRLLFIANHCGGNHALQFDALRMAYDEIKKGENTQLFREVVNKIGNRLGEKYGMDLAWCEAVDRRAEQKKVKLENELSSYRTNLIKESIRMGYNDFGDFYYACGMLGDAFKNYIRTRDYCTTTKHIIHMCMNAILVSIEMGQFTHVTSYVNKAEQNPETLEPMVNAKLRCASGLAHLELKKYKLAARKFLDVNPELGNSYNEVIAPQDIATYGGLCALASFDRSELKQKVIDNINFRNFLELVPDVRELINDFYSSRYASCLEYLASLKSNLLLDIHLHDHVDTLYDQIRKKALIQYTLPFVSVDLSRMADAFKTSVSGLEKELEALITDNQIQARIDSHNKILYARHADQRNATFQKVLQMGNEFDRDVRAMLLRANLLKHEYHARSARKL
For the molecule B1, the binding entry in assay [1] is listed as “binds”; in assay [2], “no binding”.

B2: CSN3 (signalosome subunit 3) (protein, UniProt Q8W575 1-429)
chain: MIGAVNSVEAVITSIQGLSGSPEDLSALHDLLRGAQDSLRAEPGVNFSTLDQLDASKHSLGYLYFLEVLTCGPVSKEKAAYEIPIIARFINSCDAGQIRLASYKFVSLCKILKDHVIALGDPLRGVGPLLNAVQKLQVSSKRLTALHPDVLQLCLQAKSYKSGFSILSDDIVEIDQPRDFFLYSYYGGMICIGLKRFQKALELLYNVVTAPMHQVNAIALEAYKKYILVSLIHNGQFTNTLPKCASTAAQRSFKNYTGPYIELGNCYNDGKIGELEALVVARNAEFEEDKNLGLVKQAVSSLYKRNILRLTQKYLTLSLQDIANMVQLGNAKEAEMHVLQMIQDGQIHALINQKDGMVRFLEDPEQYKSSEMIEIMDSVIQRTIGLSKNLLAMDESLSCDPLYLGKVGRERQRYDFGDDFDTVPQKFSM
On to B2, for which the values for the binding entry in assay [1] and in assay [2] were “binds” and “no binding”, respectively.

B3: CULLIN4 (CUL4) (protein, UniProt Q8LGH4 1-792)
chain: MSLPTKRSTFSAASASDDSSYSSPPMKKAKNDLHHSPQHPNTADKVVGFHMEEDPTPAAANLSRKKATLPQPTKKFVIKLNKAKPTLPTNFEENTWEKLQSAIRAIFLKKKISFDLESLYQAVDNLCLHKLDGKLYDQIEKECEEHISAALQSLVGQNTDLTVFLSRVEKCWQDFCDQMLMIRSIALTLDRKYVIQNPNVRSLWEMGLQLFRKHLSLAPEVEQRTVKGLLSMIEKERLAEAVNRTLLSHLLKMFTALGIYMESFEKPFLEGTSEFYAAEGMKYMQQSDVPEYLKHVEGRLHEENERCILYIDAVTRKPLITTVERQLLERHILVVLEKGFTTLMDGRRTEDLQRMQTLFSRVNALESLRQALSSYVRKTGQKIVMDEEKDKDMVQSLLDFKASLDIIWEESFYKNESFGNTIKDSFEHLINLRQNRPAELIAKFLDEKLRAGNKGTSEEELESVLEKVLVLFRFIQGKDVFEAFYKKDLAKRLLLGKSASIDAEKSMISKLKTECGSQFTNKLEGMFKDIELSKEINESFKQSSQARTKLPSGIEMSVHVLTTGYWPTYPPMDVKLPHELNVYQDIFKEFYLSKYSGRRLMWQNSLGHCVLKADFSKGKKELAVSLFQAVVLMLFNDAMKLSFEDIKDSTSIEDKELRRTLQSLACGKVRVLQKNPKGRDVEDGDEFEFNDEFAAPLYRIKVNAIQMKETVEENTSTTERVFQDRQYQIDAAIVRIMKTRKVLSHTLLITELFQQLKFPIKPADLKKRIESLIDREYLEREKSNPQIYNYLA
On to B3, for which the binding entry in assay [1] is on record as “binds”; in assay [2] it was “no binding”.

B4: COP10 (protein, UniProt Q9LJD7 1-182)
chain: MMTPGGSGRLRPLPTAMYAGYSGTASSWVAKTSVSASGKRIQREMAELNIDPPPDCSAGPKGDNLYHWIATIIGPSGTPYEGGIFFLDIIFPSDYPFKPPKLVFKTRIYHCNVDTAGDLSVNILRDSWSPALTITKVLQAIRSIFLKPEPYSPALPVIARLYLTDREKHDEVAKEWTLRFAK
Turning to B4, the binding entry in assay [1] was “binds”; in assay [2], “no binding”.

B5: CSN4 (signalosome subunit 4) (protein, UniProt Q8L5U0 1-397)
chain: MDEALTNASAIGDQRQKIEQYKLILSSVLSSNDLLQAQRFIDHILSDDVPLVVSRQLLQSFAQELGRLEPETQKEIAQFTLTQIQPRVVSFEEQALVIREKLAGLYESEQEWSKAAQMLSGIDLDSGMRAVDDNFKLSKCIQIARLYLEDDDAVNAEAFINKASFLVSNSQNEVLNLQYKVCYARILDMKRKFLEAALRYYGISQIEQRQIGDEEIDENALEQALSAAVTCTILAGAGPQRSRVLATLYKDERCSKLKIYPILQKVYLERILRRPEIDAFSEELRPHQKASLPDKSTVLDRAMIEHNLLSASKLYTNIRFDELGTLLAIDPRKAEKIAANMIGQDRMRGSIDQEEAVIHFEDDVEELQQWDQQISGLCQALNDILDGMAKKGMSVPV
As for B5, the binding entry in assay [1] is “binds”; in assay [2] it was “no binding”.

B6: CSN2 (signalosome subunit 2) (protein, UniProt Q8W207 1-439)
chain: MASDADMEDYGFEYSDEEQEEQDVDIENQYYNSKGMVETEPEEALSGFAEVVQMEPEKADWGFKALKQTVKIYYRLGKYKEMMEAYTEMLTYIKSAVTRNYSEKCINNIMDFVSGSASQNTGLLQEFYQTTLKALEEAKNERLWFKTNLKLCNIWFDIGEYRRMTKILKELHKSCQKEDGTDDQKKGSQLLEVYAIEIQIYTETKDNKKLKQLYHKALAIKSAIPHPRIMGIIRECGGKMHMAERQWEEAATDFFEAFKNYDEAGNQRRIQCLKYLVLANMLMESEVNPFDGQEAKPYKNDPEILAMTNLIAAYQRNEIIEFERILKSNRRTIMDDPFIRNYMEDLLKKVRTQVLLKLIKPYTKIGIPFISKELNVPETDVTELLVSLILDSRIDGHIDEMNRYLLRGDSGNGRKLHKAVDKWNSQLKSLSSNITSRVC
Take B6: the figures for the binding result in assay [1] and in assay [2] were “binds” and “no binding”, respectively.
